The results in this text go back to article PMC12162657.

The chains behind the UniProt entries cited, without tags or fusion partners.
UniProt Q9JM13: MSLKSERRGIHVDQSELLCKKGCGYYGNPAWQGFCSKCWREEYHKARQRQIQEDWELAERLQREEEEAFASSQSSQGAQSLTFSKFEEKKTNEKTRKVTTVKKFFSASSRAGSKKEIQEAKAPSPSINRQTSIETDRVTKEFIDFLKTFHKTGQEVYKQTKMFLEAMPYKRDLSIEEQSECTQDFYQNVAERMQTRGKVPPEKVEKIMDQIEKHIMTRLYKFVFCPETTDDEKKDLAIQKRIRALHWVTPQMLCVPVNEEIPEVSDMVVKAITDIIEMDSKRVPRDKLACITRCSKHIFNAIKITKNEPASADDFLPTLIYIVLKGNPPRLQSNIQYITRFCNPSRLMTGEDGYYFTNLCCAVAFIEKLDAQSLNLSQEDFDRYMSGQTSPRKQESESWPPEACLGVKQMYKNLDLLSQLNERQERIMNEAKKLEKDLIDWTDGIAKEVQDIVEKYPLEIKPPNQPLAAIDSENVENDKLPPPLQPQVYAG

In test [1] the target is T1, GFP-Rab21 T31N (mouse) (UniProt P35282).
T1 sequence: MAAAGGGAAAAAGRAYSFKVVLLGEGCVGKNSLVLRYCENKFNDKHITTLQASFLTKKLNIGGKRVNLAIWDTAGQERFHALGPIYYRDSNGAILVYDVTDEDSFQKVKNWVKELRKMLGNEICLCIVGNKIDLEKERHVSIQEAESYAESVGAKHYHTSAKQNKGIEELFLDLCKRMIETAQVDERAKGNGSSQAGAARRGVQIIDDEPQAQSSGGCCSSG
The experiment in a line: co-IP; N2a cells transfected with GFP-fusion proteins, lysed (10 mM Tris-HCl pH 7.5, 150 mM NaCl, 0.5 mM EDTA, 0.2% NP-40); pre-cleared lysate incubated 1 h at 4°C with GFP-Trap_MA magnetic agarose beads; Western blot of immunoprecipitates. Background: In western blotting, separated proteins are transferred to a membrane and probed.

In test [2] the target is T2, GFP-Rab21 WT (mouse) (UniProt P35282).
T2 sequence: T1 sequence with N31T
Described as above.

Positions count from the first letter of the chain named. These are yes or no findings as the source states them, for the method shown. In cells and extracts the contact can be indirect. Some results given as binding are weak or reduced against the parent protein; the word gives no strength. Where a sequence is shown, tags or fusion partners need not be part of it.

On to Rabex-5 (from UniProt Q9JM13 1-491), for which the binding result in test [1] and in test [2] was “binds” in each case.
